# Data as given in the supplement of paper PMC8728848.
# This is one part of the list.
# Legend:
# Experiment in all cases: glycan array binding signal (z-score within array); higher = stronger binding
# Settings in all cases: glycan notation: IUPAC condensed, linker removed
# [1] = target: GlcNAc(b1-3)Gal(b1-4)GlcNAc(b1-3)Gal(b1-4)GlcNAc(b1-3)GalNAc
# Method in brief: (§1)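 Columns mapping to the same glycan were averaged after glycan names were converted to IUPAC-condensed notation. The data come from 3228 arrays in the Consortium for Functional Glycomics database, limited to those with an available protein sequence. Binding is reported as a within-array Z-score averaged across arrays of one protein sequence and across linkers.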
# [2] = target: GlcNAc(b1-3)Gal(b1-4)GlcNAc(b1-3)GalNAc
# Method in brief: as §1
# [3] = target: GlcNAc(b1-3)Gal(b1-4)GlcNAc(b1-3)[GlcNAc(b1-3)Gal(b1-4)GlcNAc(b1-3)]GalNAc
# Method in brief: as §1
# [4] = target: GlcNAc(b1-3)Gal(b1-4)GlcNAc(b1-6)[Gal(b1-3)]GalNAc
# Method in brief: as §1
# [5] = target: GlcNAc(b1-3)Gal(b1-4)GlcNAc(b1-6)[GlcNAc(b1-3)Gal(b1-3)]GalNAc
# Method in brief: as §1
# [6] = target: GlcNAc(b1-3)Gal(b1-4)GlcNAc(b1-6)[GlcNAc(b1-3)]Gal(b1-4)GlcNAc
# Method in brief: as §1
# GlcNAc(b1-3)GalNAc = target: GlcNAc(b1-3)GalNAc
# Method in brief: as §1
# GlcNAc(b1-3)Man = target: GlcNAc(b1-3)Man
# Method in brief: as §1
# [7] = target: GlcNAc(b1-3)[GlcNAc(b1-4)][GlcNAc(b1-6)]GlcNAc
# Method in brief: as §1
# [8] = target: GlcNAc(b1-3)[GlcNAc(b1-6)]Gal(b1-4)GlcNAc
# Method in brief: as §1
# [9] = target: GlcNAc(b1-3)[GlcNAc(b1-6)]GalNAc
# Method in brief: as §1
# [10] = target: GlcNAc(b1-4)Gal(b1-4)GlcNAc
# Method in brief: as §1
# GlcNAc(b1-4)GlcNAc = target: GlcNAc(b1-4)GlcNAc
# Method in brief: as §1
# [11] = target: GlcNAc(b1-4)GlcNAc(b1-4)GlcNAc
# Method in brief: as §1
# [12] = target: GlcNAc(b1-4)GlcNAc(b1-4)GlcNAc(b1-4)GlcNAc(b1-4)GlcNAc
# Method in brief: as §1
# [13] = target: GlcNAc(b1-4)GlcNAc(b1-4)GlcNAc(b1-4)GlcNAc(b1-4)GlcNAc(b1-4)GlcNAc
# Method in brief: as §1
# [14] = target: GlcNAc(b1-4)[GlcNAc(b1-6)]GalNAc
# Method in brief: as §1
# [15] = target: GlcNAc(b1-6)Gal(b1-4)GlcNAc
# Method in brief: as §1
# GlcNAc(b1-6)GalNAc = target: GlcNAc(b1-6)GalNAc
# Method in brief: as §1
# [16] = target: GlcNAc6S(b1-3)Gal(b1-4)GlcNAc
# Method in brief: as §1
# Kdn(a2-3)Gal(b1-3)GalNAc = target: Kdn(a2-3)Gal(b1-3)GalNAc
# Method in brief: as §1
# Kdn(a2-3)Gal(b1-3)GlcNAc = target: Kdn(a2-3)Gal(b1-3)GlcNAc
# Method in brief: as §1
# Kdn(a2-3)Gal(b1-4)Glc = target: Kdn(a2-3)Gal(b1-4)Glc
# Method in brief: as §1
# Kdn(a2-3)Gal(b1-4)GlcNAc = target: Kdn(a2-3)Gal(b1-4)GlcNAc
# Method in brief: as §1
# [17] = target: Kdn(a2-3)Gal(b1-4)[Fuc(a1-3)]GlcNAc
# Method in brief: as §1
# Kdn(a2-6)Gal(b1-4)GlcNAc = target: Kdn(a2-6)Gal(b1-4)GlcNAc
# Method in brief: as §1
# [18] = target: Man(a1-2)Man(a1-2)Man(a1-3)Man
# Method in brief: as §1
# [19] = target: Man(a1-2)Man(a1-2)Man(a1-6)[Man(a1-3)]Man
# Method in brief: as §1
# Man(a1-2)Man(a1-3)Man = target: Man(a1-2)Man(a1-3)Man
# Method in brief: as §1
# [20] = target: Man(a1-2)Man(a1-3)[Man(a1-2)Man(a1-6)]Man
# Method in brief: as §1
# [21] = target: Man(a1-2)Man(a1-3)[Man(a1-2)Man(a1-6)]Man(a1-6)[Man(a1-2)Man(a1-2)Man(a1-3)]Man
# Method in brief: as §1
# [22] = target: Man(a1-2)Man(a1-3)[Man(a1-2)Man(a1-6)]Man(a1-6)[Man(a1-2)Man(a1-2)Man(a1-3)]Man(b1-4)GlcNAc(b1-4)GlcNAc
# Method in brief: as §1
# [23] = target: Man(a1-2)Man(a1-3)[Man(a1-6)]Man(a1-6)[Man(a1-2)Man(a1-3)]Man(b1-4)GlcNAc(b1-4)GlcNAc
# Method in brief: as §1
# [24] = target: Man(a1-2)Man(a1-6)[Man(a1-3)]Man(a1-6)[Man(a1-2)Man(a1-2)Man(a1-3)]Man
# Method in brief: as §1
# [25] = target: Man(a1-2)Man(a1-6)[Man(a1-3)]Man(a1-6)[Man(a1-2)Man(a1-2)Man(a1-3)]Man(b1-4)GlcNAc(b1-4)GlcNAc
# Method in brief: as §1
# Man(a1-3)[Man(a1-6)]Man = target: Man(a1-3)[Man(a1-6)]Man
# Method in brief: as §1
# [26] = target: Man(a1-3)[Man(a1-6)]Man(a1-6)[Man(a1-2)Man(a1-3)]Man(b1-4)GlcNAc(b1-4)GlcNAc
# Method in brief: as §1
binder,measurement,setting,value
LF82 (Escherichia coli) (protein) ADWGPCRTASGDPFIFVTSFTKNIQNPTDNVTGQTYPDFYQWALGDKYSGVCECPSPNPTEARPTLYKTESTLAAGHNSTYFKITNNLEVSTRVYIANVGNVQVPFINKSNSQPGRECDQPTFGWTTGSKGQLSLYIAKPFVGEQNIPQTIIVSVFGTKKENVYSSVPISQVLLSGKVTVTQGCELAAGTSLDIDFGEYQAHDFKGRTGQPPQNVQKIQKELTFNCTNISDGVHIYLSLEGTPNAAYPSAISLGNADVGAVIEDGKGNILKPNDSNSLLEMNPGSLYEYVKRKVTTTITAYPVSTTGKLPAAGDYSGVATMHVELDGGGGGGGGGGATTDLGAKGTLKFSLKISQGHHHHHH,glycan array binding signal (z-score),[1],0.656
same,glycan array binding signal (z-score),[2],-0.433
same,glycan array binding signal (z-score),[3],-1.02
same,glycan array binding signal (z-score),[4],-0.509
same,glycan array binding signal (z-score),[5],0.416
same,glycan array binding signal (z-score),[6],-0.441
same,glycan array binding signal (z-score),GlcNAc(b1-3)GalNAc,1.39
same,glycan array binding signal (z-score),GlcNAc(b1-3)Man,0.644
same,glycan array binding signal (z-score),[7],-0.52
same,glycan array binding signal (z-score),[8],-0.184
same,glycan array binding signal (z-score),[9],-0.992
same,glycan array binding signal (z-score),[10],-0.28
same,glycan array binding signal (z-score),GlcNAc(b1-4)GlcNAc,0.06
same,glycan array binding signal (z-score),[11],-0.274
same,glycan array binding signal (z-score),[12],-0.044
same,glycan array binding signal (z-score),[13],-1.17
same,glycan array binding signal (z-score),[14],-0.29
same,glycan array binding signal (z-score),[15],-0.158
same,glycan array binding signal (z-score),GlcNAc(b1-6)GalNAc,0.085
same,glycan array binding signal (z-score),[16],-0.173
same,glycan array binding signal (z-score),Kdn(a2-3)Gal(b1-3)GalNAc,1.18
same,glycan array binding signal (z-score),Kdn(a2-3)Gal(b1-3)GlcNAc,0.209
same,glycan array binding signal (z-score),Kdn(a2-3)Gal(b1-4)Glc,-0.955
same,glycan array binding signal (z-score),Kdn(a2-3)Gal(b1-4)GlcNAc,2.1
same,glycan array binding signal (z-score),[17],-0.197
same,glycan array binding signal (z-score),Kdn(a2-6)Gal(b1-4)GlcNAc,1.03
same,glycan array binding signal (z-score),[18],0.307
same,glycan array binding signal (z-score),[19],-0.62
same,glycan array binding signal (z-score),Man(a1-2)Man(a1-3)Man,-0.318
same,glycan array binding signal (z-score),[20],0.3
same,glycan array binding signal (z-score),[21],0.665
same,glycan array binding signal (z-score),[22],-0.7
same,glycan array binding signal (z-score),[23],0.664
same,glycan array binding signal (z-score),[24],-0.197
same,glycan array binding signal (z-score),[25],0.244
same,glycan array binding signal (z-score),Man(a1-3)[Man(a1-6)]Man,0.337
same,glycan array binding signal (z-score),[26],-0.492

# Retrieved one by one from the entries so far:
binder,measurement,setting,value
LF82 (Escherichia coli) (protein) ADWGPCRTASGDPFIFVTSFTKNIQNPTDNVTGQTYPDFYQWALGDKYSGVCECPSPNPTEARPTLYKTESTLAAGHNSTYFKITNNLEVSTRVYIANVGNVQVPFINKSNSQPGRECDQPTFGWTTGSKGQLSLYIAKPFVGEQNIPQTIIVSVFGTKKENVYSSVPISQVLLSGKVTVTQGCELAAGTSLDIDFGEYQAHDFKGRTGQPPQNVQKIQKELTFNCTNISDGVHIYLSLEGTPNAAYPSAISLGNADVGAVIEDGKGNILKPNDSNSLLEMNPGSLYEYVKRKVTTTITAYPVSTTGKLPAAGDYSGVATMHVELDGGGGGGGGGGATTDLGAKGTLKFSLKISQGHHHHHH,glycan array binding signal (z-score),[14],-0.29
same,glycan array binding signal (z-score),[18],0.307
